Test results published in paper doi:10.1101/2022.05.31.494111.
Results are given in words; binding and its absence hold for the method and conditions named. Binding can be weak; no strength is given.

Molecular target: Chlamydomonas IFT-B1 pentamer CrIFT81/74_(128-C)/27/25_(1-136)/22 (Chlamydomonas reinhardtii)
Assay: SEC

B1: human RabL2B (protein, UniProt Q9UNT1 1-228)
chain: MAEDKTKPSELDQGKYDADDNVKIICLGDSAVGKSKLMERFLMDGFQPQQLSTYALTLYKHTATVDGRTILVDFWDTAGQERFQSMHASYYHKAHACIMVFDVQRKVTYRNLSTWYTELREFRPEIPCIVVANKIDDINVTQKSFNFAKKFSLPLYFVSAADGTNVVKLFNDAIRLAVSYKQNSQDFMDEIFQELENFSLEQEEEDVPDQEQSSSIETPSEEAASPHS
In the case of B1, the binding is reported as “binds”.
